Laboratory results published in article PMC2366074.
These are yes or no findings as the source states them, for the method shown. Binding seen in cells or lysates may run through a third protein. These calls come from enrichment with a bait or labelling near it, and not all partners need be listed. Where a sequence is shown, tags or fusion partners need not be part of it.

Chains of the proteins cited; added tags and fusions are not shown.
UniProt Q8TAQ2: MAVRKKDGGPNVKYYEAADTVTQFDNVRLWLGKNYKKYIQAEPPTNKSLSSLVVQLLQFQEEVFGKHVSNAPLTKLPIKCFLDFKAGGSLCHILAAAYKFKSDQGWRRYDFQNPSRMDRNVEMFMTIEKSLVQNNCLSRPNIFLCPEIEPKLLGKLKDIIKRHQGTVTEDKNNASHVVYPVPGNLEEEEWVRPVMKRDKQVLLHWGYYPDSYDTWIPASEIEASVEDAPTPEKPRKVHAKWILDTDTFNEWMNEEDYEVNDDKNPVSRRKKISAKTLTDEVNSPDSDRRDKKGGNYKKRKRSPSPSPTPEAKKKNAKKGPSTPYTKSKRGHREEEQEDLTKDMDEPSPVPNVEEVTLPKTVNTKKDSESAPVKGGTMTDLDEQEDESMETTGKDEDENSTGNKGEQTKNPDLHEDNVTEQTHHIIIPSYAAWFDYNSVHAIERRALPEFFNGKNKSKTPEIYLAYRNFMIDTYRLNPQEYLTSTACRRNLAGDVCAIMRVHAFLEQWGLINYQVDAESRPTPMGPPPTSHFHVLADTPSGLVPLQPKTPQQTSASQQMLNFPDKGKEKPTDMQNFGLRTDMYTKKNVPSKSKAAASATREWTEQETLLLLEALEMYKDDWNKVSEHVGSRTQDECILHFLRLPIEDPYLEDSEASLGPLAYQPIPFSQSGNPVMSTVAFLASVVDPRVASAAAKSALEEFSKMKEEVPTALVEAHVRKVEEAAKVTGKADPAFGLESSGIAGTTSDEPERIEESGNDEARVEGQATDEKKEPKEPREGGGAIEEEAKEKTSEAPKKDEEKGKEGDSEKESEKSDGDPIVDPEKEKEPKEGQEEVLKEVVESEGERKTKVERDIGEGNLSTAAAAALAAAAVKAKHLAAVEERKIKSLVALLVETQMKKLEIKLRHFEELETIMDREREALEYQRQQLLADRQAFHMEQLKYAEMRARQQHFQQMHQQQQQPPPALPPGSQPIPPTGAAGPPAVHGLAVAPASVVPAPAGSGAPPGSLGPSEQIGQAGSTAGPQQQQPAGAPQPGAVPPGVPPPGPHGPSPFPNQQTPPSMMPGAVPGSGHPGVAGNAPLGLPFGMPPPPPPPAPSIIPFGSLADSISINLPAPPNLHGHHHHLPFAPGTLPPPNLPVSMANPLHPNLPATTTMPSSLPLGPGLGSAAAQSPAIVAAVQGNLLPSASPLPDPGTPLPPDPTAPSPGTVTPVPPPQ
UniProt P51532: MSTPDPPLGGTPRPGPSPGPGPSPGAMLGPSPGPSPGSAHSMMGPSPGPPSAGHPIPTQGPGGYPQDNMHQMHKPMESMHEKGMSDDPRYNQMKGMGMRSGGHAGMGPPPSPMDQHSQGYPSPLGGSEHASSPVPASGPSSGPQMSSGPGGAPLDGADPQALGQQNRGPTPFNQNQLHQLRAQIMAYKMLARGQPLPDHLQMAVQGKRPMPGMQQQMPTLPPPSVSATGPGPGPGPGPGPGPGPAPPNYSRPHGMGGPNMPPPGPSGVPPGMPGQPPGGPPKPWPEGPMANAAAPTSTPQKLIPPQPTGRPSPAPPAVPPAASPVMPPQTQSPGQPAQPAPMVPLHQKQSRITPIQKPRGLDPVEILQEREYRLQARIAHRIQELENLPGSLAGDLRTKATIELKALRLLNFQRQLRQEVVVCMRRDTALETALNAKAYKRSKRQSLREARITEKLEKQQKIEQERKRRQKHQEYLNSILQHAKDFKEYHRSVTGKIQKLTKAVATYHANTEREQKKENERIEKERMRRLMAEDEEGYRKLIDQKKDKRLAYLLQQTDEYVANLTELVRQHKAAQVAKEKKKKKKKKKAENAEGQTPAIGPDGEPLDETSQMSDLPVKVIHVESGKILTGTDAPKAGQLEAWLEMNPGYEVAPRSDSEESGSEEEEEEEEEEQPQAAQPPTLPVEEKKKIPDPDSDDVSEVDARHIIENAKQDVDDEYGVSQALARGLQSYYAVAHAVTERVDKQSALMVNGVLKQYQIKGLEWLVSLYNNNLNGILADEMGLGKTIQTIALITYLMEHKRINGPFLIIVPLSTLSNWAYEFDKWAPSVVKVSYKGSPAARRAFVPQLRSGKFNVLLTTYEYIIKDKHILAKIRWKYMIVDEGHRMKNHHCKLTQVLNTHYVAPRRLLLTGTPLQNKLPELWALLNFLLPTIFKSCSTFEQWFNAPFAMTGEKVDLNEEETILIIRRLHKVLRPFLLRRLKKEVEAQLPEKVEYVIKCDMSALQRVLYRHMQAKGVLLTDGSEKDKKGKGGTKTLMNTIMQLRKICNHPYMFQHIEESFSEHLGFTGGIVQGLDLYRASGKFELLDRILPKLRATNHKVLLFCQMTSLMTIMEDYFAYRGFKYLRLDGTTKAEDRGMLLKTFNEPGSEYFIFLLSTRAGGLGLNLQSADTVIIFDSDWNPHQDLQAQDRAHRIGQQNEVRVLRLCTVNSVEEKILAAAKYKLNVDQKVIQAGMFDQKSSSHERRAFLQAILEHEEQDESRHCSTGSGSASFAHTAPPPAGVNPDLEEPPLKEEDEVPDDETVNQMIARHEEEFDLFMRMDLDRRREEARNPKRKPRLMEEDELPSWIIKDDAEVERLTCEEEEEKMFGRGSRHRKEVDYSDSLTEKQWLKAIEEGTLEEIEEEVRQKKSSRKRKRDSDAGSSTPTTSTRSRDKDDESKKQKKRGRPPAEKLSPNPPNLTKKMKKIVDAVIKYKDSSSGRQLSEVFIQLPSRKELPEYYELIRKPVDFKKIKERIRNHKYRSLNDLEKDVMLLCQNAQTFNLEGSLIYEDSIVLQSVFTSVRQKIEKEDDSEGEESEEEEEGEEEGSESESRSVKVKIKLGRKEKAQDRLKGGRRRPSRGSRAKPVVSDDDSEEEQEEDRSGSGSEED

Target: T1, Recombinant green fluorescent protein (GFP)-ADNP (UniProt Q9H2P0)
T1 sequence: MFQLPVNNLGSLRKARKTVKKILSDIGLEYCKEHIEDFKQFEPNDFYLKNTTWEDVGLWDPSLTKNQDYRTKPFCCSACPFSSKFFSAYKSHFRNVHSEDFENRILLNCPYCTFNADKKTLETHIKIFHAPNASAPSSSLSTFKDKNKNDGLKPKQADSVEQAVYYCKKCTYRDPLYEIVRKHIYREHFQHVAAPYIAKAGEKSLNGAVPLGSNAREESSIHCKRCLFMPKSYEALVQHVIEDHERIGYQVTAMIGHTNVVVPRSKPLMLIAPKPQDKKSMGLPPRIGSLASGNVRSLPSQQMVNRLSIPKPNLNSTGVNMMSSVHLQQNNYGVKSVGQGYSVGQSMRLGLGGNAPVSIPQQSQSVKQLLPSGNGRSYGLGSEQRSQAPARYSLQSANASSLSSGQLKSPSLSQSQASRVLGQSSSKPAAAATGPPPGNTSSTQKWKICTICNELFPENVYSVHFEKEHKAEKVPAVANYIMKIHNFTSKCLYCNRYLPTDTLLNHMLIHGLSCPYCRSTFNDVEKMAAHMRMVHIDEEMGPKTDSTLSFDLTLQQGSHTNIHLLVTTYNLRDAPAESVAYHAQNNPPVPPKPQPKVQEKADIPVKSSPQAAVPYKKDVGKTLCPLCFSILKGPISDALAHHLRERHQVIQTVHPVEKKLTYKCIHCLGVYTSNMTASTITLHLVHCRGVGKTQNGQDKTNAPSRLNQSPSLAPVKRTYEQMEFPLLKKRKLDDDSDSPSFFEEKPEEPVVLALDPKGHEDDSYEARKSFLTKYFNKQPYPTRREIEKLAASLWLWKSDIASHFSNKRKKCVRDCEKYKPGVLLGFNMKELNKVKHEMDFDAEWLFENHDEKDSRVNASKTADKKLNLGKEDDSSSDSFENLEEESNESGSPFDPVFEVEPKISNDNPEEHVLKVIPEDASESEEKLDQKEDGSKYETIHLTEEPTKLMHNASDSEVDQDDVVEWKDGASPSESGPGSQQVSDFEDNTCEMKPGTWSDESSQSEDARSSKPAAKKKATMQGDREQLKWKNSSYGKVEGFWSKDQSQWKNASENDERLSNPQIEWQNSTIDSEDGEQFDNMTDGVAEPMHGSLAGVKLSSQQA
Assay: affinity purification with mass spectrom

Row | binding | Substance
1 | binds | BAF170 (from UniProt Q8TAQ2 1-1214)
2 | binds | BRG1 (from UniProt P51532 1-1647)
